According to US10703770B2, “Compositions and methods for the dissolution and depolymerization of lignin” (National Technology & Engineering Solutions of Sandia, LLC, priority 2016, dated 2020):

Assays:
switchgrass (SG) [1] = assay: Compositional analysis of switchgrass after [EOA][OAc] pretreatment; parameters: species or system Panicum virgatum
switchgrass (SG) [2] = assay: One-pot IL pretreatment and enzymatic saccharification, sugar yield; parameters: species or system Panicum virgatum; conditions: optimized conditions

CC(=O)O.NCCO [[EOA][OAc], ethanolamine acetate]
xylan contents of pretreated biomass (switchgrass (SG) [1]; over all pretreatment conditions of Table 2): 24-27% | reduction of lignin content (switchgrass (SG) [1]; pretreatment under higher temperature, untreated 20% vs. pretreated 4.7%): 77% | glucose liberated from switchgrass (switchgrass (SG) [2]): 85%
